Assay results published in patent US20060030524A1, “Treatment of systemic lupus erythematosus by down-regulating the autoimmune response to autoantigens” (Yeda Research and Development Co. Ltd., priority 1998, published 2006).
These are yes or no findings as the source states them, for the method shown. Some results given as binding are weak or reduced against the parent protein; the word gives no strength.

Molecular target: anti-p53 monoclonal antibody PAb-421
Assay: ELISA (FIG. 7), idiotypic binding

- binding: binds
B1: monoclonal antibody IDI-1 (antibody, V domains shown)
VH: QVQLQQSGAELVRPGASVKLSCKASGYIFTSYWINWVRQRPGQGLEWIGNISPADSSTNYNQKFKDKATLTVDKSSTTAYMQLSRPTFEDSAVYYCAREEVRRRRDMDFWGQGTSVTVSS
VL: DIVITQDELSNPVTSGESVSISCRSRQSLLYKNGKTYLNWFLQRPGQSPQLLIYLMSIRASGVSDRFSGNGSGTDFTLEISRVRAEDVGVYYCQQLVEYPYTFGGGTKLEIKR
